Source: the supplement of paper PMC10849652
The other results are listed elsewhere or left out. Residues, ends and D or L forms follow the SMILES beside them. *: point of attachment. Cbz = O=C(OCc1ccccc1)*

Sequences of proteins named here, by UniProt entry; tags and fusion partners are left off. A change or cut given only in a name is not applied to a line headed by its entry.
UniProt Q14934: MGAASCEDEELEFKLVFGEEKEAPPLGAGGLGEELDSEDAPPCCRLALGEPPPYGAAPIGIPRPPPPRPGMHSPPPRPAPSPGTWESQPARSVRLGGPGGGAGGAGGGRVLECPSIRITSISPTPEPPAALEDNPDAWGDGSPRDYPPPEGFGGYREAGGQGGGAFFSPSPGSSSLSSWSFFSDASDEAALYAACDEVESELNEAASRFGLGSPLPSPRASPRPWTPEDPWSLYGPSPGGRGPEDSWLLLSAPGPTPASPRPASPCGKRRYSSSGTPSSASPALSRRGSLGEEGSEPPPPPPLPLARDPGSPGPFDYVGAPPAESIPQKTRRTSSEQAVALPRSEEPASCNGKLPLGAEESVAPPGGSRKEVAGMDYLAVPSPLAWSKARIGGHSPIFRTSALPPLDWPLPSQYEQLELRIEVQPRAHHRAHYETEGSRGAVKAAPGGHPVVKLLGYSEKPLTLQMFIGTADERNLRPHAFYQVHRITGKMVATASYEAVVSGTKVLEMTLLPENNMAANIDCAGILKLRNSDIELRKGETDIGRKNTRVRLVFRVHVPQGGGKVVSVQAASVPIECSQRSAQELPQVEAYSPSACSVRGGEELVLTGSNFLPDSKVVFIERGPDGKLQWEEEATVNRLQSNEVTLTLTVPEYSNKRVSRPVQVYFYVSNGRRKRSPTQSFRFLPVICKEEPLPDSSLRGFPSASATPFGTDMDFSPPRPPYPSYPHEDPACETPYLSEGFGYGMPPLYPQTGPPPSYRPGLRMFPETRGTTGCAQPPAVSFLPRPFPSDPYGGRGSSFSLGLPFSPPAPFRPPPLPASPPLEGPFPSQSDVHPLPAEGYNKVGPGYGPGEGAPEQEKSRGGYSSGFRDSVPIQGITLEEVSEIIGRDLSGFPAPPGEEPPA
UniProt P13056: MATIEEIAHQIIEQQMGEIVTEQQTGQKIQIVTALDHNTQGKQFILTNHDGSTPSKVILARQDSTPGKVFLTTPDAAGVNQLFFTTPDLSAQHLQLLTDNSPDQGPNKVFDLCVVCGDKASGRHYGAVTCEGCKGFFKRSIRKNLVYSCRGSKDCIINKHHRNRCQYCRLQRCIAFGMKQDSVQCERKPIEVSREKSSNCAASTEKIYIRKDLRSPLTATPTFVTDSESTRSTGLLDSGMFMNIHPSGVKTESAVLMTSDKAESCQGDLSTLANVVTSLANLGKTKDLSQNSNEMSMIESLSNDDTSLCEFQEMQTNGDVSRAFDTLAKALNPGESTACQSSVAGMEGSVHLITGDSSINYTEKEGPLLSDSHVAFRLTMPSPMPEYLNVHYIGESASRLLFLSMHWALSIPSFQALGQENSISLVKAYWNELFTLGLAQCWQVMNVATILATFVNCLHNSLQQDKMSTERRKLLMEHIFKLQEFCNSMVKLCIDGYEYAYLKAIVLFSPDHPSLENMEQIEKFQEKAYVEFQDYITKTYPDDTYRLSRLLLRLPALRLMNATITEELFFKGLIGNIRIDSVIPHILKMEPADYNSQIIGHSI
UniProt Q96T66: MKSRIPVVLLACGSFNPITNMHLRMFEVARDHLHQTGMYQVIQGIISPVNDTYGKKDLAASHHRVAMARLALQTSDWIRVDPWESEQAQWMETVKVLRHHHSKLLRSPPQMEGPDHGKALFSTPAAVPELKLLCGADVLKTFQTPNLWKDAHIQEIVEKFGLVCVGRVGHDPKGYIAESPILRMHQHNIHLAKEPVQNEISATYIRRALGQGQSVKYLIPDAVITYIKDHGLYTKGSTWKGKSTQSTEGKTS
UniProt P46531, whole entry, looked up: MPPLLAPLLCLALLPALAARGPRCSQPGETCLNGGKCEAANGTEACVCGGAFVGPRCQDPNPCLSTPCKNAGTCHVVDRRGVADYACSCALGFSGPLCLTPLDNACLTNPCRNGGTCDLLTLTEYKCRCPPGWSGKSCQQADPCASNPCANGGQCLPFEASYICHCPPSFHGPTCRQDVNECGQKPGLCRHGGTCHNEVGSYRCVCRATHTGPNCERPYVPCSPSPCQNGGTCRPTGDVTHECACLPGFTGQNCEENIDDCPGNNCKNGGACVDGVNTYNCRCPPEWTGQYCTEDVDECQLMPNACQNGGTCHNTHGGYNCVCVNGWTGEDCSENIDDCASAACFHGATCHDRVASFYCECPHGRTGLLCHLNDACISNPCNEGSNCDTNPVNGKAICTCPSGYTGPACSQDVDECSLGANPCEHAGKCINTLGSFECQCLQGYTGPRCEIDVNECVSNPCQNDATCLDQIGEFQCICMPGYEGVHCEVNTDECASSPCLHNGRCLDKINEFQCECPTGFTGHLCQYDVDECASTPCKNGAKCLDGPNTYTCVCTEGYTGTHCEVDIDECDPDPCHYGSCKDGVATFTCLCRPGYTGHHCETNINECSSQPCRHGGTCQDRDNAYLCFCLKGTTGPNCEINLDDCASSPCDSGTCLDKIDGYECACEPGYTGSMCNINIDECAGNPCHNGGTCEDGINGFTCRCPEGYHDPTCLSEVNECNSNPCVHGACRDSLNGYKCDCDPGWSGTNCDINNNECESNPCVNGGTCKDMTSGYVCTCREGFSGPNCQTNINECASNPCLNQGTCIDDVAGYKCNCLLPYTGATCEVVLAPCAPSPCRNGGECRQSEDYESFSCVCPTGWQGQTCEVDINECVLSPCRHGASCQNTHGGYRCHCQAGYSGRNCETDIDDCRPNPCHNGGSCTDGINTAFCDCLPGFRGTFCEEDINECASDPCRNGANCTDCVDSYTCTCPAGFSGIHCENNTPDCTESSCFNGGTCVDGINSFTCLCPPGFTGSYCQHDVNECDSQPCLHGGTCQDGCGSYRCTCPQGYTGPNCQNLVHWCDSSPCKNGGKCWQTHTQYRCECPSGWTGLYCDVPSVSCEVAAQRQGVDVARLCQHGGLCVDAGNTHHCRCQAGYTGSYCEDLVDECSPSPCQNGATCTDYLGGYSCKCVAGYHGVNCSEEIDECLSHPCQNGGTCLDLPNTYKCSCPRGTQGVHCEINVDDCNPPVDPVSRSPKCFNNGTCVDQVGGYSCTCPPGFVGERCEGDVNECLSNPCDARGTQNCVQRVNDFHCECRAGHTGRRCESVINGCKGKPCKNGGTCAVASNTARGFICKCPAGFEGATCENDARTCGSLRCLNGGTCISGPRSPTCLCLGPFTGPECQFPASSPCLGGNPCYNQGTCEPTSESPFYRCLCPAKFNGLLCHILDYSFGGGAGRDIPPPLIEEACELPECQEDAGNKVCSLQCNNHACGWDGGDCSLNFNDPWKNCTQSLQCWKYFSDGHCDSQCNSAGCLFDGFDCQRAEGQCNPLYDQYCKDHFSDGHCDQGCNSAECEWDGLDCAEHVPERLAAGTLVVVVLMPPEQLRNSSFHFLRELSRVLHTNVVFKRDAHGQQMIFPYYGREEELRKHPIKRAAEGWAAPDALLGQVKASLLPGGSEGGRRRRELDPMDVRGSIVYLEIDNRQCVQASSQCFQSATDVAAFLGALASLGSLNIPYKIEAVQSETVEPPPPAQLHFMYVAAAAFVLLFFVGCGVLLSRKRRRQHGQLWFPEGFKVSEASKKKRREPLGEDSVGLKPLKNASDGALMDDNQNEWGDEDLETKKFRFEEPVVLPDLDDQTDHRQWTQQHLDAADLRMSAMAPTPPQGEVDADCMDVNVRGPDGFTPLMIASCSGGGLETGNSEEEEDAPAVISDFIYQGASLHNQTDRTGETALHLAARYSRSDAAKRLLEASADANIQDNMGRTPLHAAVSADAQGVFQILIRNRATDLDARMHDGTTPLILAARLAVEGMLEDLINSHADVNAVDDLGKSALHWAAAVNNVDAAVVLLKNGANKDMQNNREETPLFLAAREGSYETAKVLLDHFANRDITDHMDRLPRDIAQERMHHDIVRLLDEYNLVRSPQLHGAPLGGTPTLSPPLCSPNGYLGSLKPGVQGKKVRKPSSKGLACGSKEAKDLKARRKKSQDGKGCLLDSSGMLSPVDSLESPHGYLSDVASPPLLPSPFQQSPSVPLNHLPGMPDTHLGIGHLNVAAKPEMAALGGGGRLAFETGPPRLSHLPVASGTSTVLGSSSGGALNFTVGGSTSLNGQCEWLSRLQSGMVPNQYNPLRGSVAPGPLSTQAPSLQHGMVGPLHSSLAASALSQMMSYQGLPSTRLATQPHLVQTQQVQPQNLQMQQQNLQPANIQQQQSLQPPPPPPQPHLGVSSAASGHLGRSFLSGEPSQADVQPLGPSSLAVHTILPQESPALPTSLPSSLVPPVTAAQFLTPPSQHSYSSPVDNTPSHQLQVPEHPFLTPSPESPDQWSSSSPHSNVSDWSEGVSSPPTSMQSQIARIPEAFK
UniProt Q00653: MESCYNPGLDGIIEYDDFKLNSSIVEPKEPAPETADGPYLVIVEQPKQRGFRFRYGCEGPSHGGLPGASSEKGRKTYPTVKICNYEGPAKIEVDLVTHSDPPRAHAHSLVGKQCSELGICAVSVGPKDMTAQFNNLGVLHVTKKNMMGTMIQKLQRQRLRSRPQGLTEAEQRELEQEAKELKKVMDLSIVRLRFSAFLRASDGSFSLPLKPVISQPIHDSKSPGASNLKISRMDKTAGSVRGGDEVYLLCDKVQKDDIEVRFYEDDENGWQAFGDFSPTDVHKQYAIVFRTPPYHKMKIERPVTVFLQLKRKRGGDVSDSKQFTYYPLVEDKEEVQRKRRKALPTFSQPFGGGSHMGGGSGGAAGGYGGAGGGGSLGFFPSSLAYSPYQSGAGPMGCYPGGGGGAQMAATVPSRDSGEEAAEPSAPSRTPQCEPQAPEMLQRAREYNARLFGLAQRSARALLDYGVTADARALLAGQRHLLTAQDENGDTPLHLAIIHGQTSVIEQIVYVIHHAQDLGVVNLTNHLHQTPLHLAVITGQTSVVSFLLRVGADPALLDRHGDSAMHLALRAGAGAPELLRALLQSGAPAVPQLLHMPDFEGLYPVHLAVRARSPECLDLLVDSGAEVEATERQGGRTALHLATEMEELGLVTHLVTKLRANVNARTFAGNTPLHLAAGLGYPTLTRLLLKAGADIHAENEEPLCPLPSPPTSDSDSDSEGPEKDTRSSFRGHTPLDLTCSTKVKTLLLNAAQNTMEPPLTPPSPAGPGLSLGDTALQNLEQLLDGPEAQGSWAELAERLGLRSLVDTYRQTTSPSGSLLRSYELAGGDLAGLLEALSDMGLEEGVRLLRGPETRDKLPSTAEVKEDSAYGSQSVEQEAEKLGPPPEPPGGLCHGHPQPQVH
UniProt Q9NWW6: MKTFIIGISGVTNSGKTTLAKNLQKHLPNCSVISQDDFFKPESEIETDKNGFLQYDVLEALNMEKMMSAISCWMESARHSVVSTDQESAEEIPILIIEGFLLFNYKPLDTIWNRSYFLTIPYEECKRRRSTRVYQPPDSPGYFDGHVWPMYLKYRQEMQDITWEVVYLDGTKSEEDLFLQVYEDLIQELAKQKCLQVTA
UniProt Q9BVI4: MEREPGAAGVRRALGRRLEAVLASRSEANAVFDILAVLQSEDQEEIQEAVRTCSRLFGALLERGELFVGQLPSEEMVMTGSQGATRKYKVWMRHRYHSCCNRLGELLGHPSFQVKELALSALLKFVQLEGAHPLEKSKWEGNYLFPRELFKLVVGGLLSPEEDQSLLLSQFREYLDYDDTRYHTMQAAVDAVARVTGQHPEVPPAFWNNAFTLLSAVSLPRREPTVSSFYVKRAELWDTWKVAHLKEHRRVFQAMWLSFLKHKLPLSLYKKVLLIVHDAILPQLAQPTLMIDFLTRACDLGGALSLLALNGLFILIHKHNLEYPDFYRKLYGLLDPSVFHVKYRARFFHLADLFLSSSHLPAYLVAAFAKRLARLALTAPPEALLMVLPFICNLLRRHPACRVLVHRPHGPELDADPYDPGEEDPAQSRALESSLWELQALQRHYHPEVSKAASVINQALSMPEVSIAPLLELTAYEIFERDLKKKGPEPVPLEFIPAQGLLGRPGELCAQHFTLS
UniProt Q9NSY0: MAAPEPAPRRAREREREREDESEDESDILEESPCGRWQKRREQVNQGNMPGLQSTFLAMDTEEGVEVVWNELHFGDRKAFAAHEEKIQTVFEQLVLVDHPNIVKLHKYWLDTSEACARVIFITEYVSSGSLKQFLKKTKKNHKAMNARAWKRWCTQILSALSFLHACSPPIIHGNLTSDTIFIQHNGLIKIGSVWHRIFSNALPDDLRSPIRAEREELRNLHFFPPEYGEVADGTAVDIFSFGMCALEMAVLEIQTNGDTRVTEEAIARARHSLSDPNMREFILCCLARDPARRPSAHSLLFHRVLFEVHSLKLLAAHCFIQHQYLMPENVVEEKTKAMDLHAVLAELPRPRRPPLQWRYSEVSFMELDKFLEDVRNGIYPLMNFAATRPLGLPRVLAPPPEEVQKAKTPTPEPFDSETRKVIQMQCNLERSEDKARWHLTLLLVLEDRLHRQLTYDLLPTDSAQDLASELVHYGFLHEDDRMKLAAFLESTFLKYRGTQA
UniProt Q9NPE3: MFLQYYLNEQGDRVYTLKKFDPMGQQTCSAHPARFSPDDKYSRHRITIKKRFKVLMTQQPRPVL

What was measured:
Test in all cases: log2 fold change, soluble protein after heating vs DMSO (PISA); higher = thermal stabilisation; K562 cells, 10 uM, 30 min; active = over 0.2 and 3.5 SD of the protein, either way, in both replicates (recomputed)
[1] = compound: C1=CC(=C(C=C1Cl)C2=NC3=NC=CN=C3C(=N2)NC4=CC=NC=C4)F
How it was run: (§1)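 Aliquots of K562 cells (2×10^6 cells/mL) treated with 10 μM compound for 30 min were heated for 3 min over 48°C-58°C. After pooling and extraction in PBS with 0.5% NP-40 at 4°C, soluble protein from a 21,000xg, 90 min spin was quantified by TMTpro 16plex LC-MS/MS with channel sums equalised. Thermal stability is expressed against control samples, from duplicates, as a log2 fold change.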

[2] = compound: CC(C)(O)CC(=O)NCCn1ccc2ncnc(Nc3ccc(Oc4cccc(C(F)(F)F)c4)c(Cl)c3)c21
How it was run: as §1

erlotinib = compound: C#Cc1cccc(Nc2ncnc3cc(OCCOC)c(OCCOC)cc23)c1 [erlotinib]
How it was run: as §1

[3] = compound: C1=CC(=CC=C1C2=NC3=C(N2)C=C(C=C3)C(=O)N)OC4=CC=C(C=C4)Cl
How it was run: as §1

[4] = compound: C1=CC2=NC=CN=C2C=C1/C=C/3\C(=O)NC(=O)S3
How it was run: as §1

[5] = compound: C1=CC=C(C=C1)C2=NC(=C(N2)C3=CC=NC=C3)C4=CC(=C(C=C4)Cl)O
How it was run: as §1

[6] = compound: C1CCN(C1)C(=O)NC2=CC=CC(=C2)NC3=NC=C(C(=N3)NCCC4=CN=CN4)Br
How it was run: as §1

[7] = compound: C1CN(CCC1(CC2=CC=C(C=C2)Cl)N)C3=NC=NC4=C3C=CN4
How it was run: as §1

ibrutinib = compound: C=CC(=O)N1CCC[C@@H](n2nc(-c3ccc(Oc4ccccc4)cc3)c3c(N)ncnc32)C1 [ibrutinib]
How it was run: as §1

ralimetinib = compound: CC(C)(C)Cn1c(N)nc2ccc(-c3[nH]c(C(C)(C)C)nc3-c3ccc(F)cc3)nc21 [ralimetinib]
How it was run: as §1

[8] = compound: CC(C)C1=C2N=C(C=C(N2N=C1)NCC3=CC=CC=C3)NCCCCCCN
How it was run: as §1

[9] = compound: CC(C)C[C@@H](C=O)NC(=O)[C@H](CC(C)C)NC(=O)[C@H](CC(C)C)NC(=O)OCc1ccccc1
How it was run: as §1

[10] = compound: CC1=C(C2=C(C=C1)C(=O)C3=CC=CC=C3N2CCCN)C
How it was run: as §1

[11] = compound: C/C(=N\NC(=O)C1=CC(=CC=C1)S(=O)(=O)N2CCOCC2)/C3=C(C=CC(=C3)Cl)O
How it was run: as §1

[12] = compound: C1=CC2=C(C=CC(=C2)/C=C\3/C(=O)NC(=NCC4=CC=CS4)S3)N=C1
How it was run: as §1

[13] = compound: C1=CC=C2C(=C1)C3=NNC4=CC=CC(=C43)C2=O
How it was run: as §1

IRAK-1-4 Inhibitor I = compound: C1COCCN1CCN2C3=CC=CC=C3N=C2NC(=O)C4=CC(=CC=C4)[N+](=O)[O-] [IRAK-1-4 Inhibitor I]
How it was run: as §1

[14] = compound: CC(=O)c1cnc2ccc(-c3cc(Cl)c(O)c(Cl)c3)nc2c1N[C@H]1CC[C@H](CN(C)C)CC1
How it was run: as §1

pinometostat = compound: CC(C)N(C[C@H]1O[C@@H](n2cnc3c(N)ncnc32)[C@H](O)[C@@H]1O)[C@H]1C[C@@H](CCc2nc3cc(C(C)(C)C)ccc3[nH]2)C1 [pinometostat]
How it was run: as §1

[15] = compound: CC1=C(C(CC(=O)N1)C2=CC=C(C=C2)C(F)(F)F)C(=O)NC3=C(C=C4C(=C3)C=NN4)F
How it was run: as §1

Measured: log2 fold change

NFATC1 (UniProt O95644)
inactive: [1] 0 | [2] 0.042

NOS1AP (UniProt O75052)
active: [7] 1.09 | [9] 1.38
inactive: erlotinib 0.134 | [1] 0.517 | [3] -0.006 | [4] -0.02 | [5] -0.248 | [6] -0.208 | ibrutinib -0.061 | ralimetinib 0.07 | [2] -0.073 | [8] -0.026 | [10] 0.154

NFATC4 isoform 2 (UniProt Q14934)
inactive: [11] -0.026 | [1] 0.146 | [12] 0.286 | [4] 0.001 | [5] 0.098 | [13] 0.197 | [6] -0.027 | [7] 0.061 | IRAK-1-4 Inhibitor I -0.061 | ibrutinib -0.033 | [14] -0.059 | ralimetinib -0.18 | [2] -0.104 | [9] -0.238 | pinometostat 0.065 | [10] 0.082

NSA2 (UniProt O95478)
inactive: [1] -0.333 | [4] -0.084 | ibrutinib -0.113 | [2] 0.245

Taken from the listing (3 entries):
NOS1AP (UniProt O75052)
active: [7] 1.09 | [9] 1.38
inactive: erlotinib 0.134 | [1] 0.517 | [3] -0.006 | [4] -0.02 | [5] -0.248 | [6] -0.208 | ibrutinib -0.061 | ralimetinib 0.07 | [2] -0.073 | [8] -0.026 | [10] 0.154

NFATC4 isoform 2 (UniProt Q14934)
inactive: [11] -0.026 | [1] 0.146 | [12] 0.286 | [4] 0.001 | [5] 0.098 | [13] 0.197 | [6] -0.027 | [7] 0.061 | IRAK-1-4 Inhibitor I -0.061 | ibrutinib -0.033 | [14] -0.059 | ralimetinib -0.18 | [2] -0.104 | [9] -0.238 | pinometostat 0.065 | [10] 0.082

NSA2 (UniProt O95478)
inactive: [1] -0.333 | [4] -0.084 | ibrutinib -0.113 | [2] 0.245

Going on with the list:

NOLC1 isoform 3 (UniProt Q14978)
inactive: erlotinib 0.002 | [3] 0.183 | [8] 0.151

NR2C1 (UniProt P13056)
inactive: [11] 0.033 | [1] -0.023 | [12] -0.038 | [4] 0.197 | [13] 0.017 | IRAK-1-4 Inhibitor I 0.031 | ibrutinib -0.021 | [14] -0.076 | [2] -0.035 | pinometostat 0.227 | [15] -0.026

NOL3 isoform 3 (UniProt O60936)
inactive: [1] -0.056 | [5] 0.067 | [6] 0.061 | [7] 0.076 | IRAK-1-4 Inhibitor I 0.142 | ralimetinib -0.092 | [2] -0.153 | [9] -0.014 | pinometostat 0.287 | [15] -0.17 | [10] -0.323

NFKBIA (UniProt P25963)
inactive: erlotinib -0.034 | [3] 0.286 | [8] -0.589

NMNAT3 (UniProt Q96T66)
inactive: erlotinib 0.342 | [1] 0.071 | [3] -0.031 | [4] 0.05 | ibrutinib -0.088 | [2] -0.018 | [8] 0.126

NFKB1 isoform 2 (UniProt P19838)
inactive: [11] 0.152 | [1] -0.132 | [3] 0.003 | [12] -0.009 | [4] 0.003 | [5] 0.078 | [13] 0.01 | [6] -0.012 | [7] -0.085 | IRAK-1-4 Inhibitor I 0.011 | ibrutinib -0.123 | [14] -0.088 | ralimetinib 0.004 | [2] -0.086 | [8] -0.407 | [9] 0.092 | pinometostat 0.126 | [15] 0.085 | [10] 0.035

NEU3 isoform 2 (UniProt Q9UQ49)
inactive: erlotinib 0.164 | [3] 0
active: [8] -0.984

NOTCH1 (UniProt P46531)
inactive: [1] -0.016 | [2] -0.011 | [15] 0.025

NPRL3 (UniProt Q12980)
inactive: erlotinib -0.115 | [3] -0.177 | [8] -0.264

NFE2L1 (UniProt Q14494)
inactive: erlotinib -0.161 | [1] -0.263 | [3] 0 | [6] -0.057 | [7] 0.281 | IRAK-1-4 Inhibitor I -0.066 | [2] -0.061 | [8] 0.328 | pinometostat 0.027 | [10] -0.16

NRIP3 (UniProt Q9NQ35)
inactive: [11] -0.159 | [12] -0.061 | [13] -0.142 | [14] -0.007

NOL9 (UniProt Q5SY16)
inactive: erlotinib 0.179 | [3] 0.068 | [8] -0.03

NFKB2 (UniProt Q00653)
inactive: [11] -0.292 | [1] -0.005 | [12] 0.198 | [4] 0.091 | [5] -0.096 | [13] -0.336 | [6] -0.178 | [7] -0.473 | IRAK-1-4 Inhibitor I -0.206 | ibrutinib 0 | [14] 0.022 | ralimetinib 0.151 | [2] 0.041 | [9] 0.129 | pinometostat 0.104 | [15] 0.071 | [10] 0.139

NOP14 (UniProt P78316)
inactive: [11] 0.042 | [1] -0.124 | [12] -0.163 | [13] -0.028 | [6] 0.069 | [7] -0.06 | IRAK-1-4 Inhibitor I -0.125 | [14] -0.112 | [2] -0.143 | pinometostat 0.078 | [15] -0.04 | [10] -0.212

NLRX1 (UniProt Q86UT6)
inactive: erlotinib -0.012 | [1] 0.063 | [3] 0.046 | [6] 0.03 | [7] 0.038 | IRAK-1-4 Inhibitor I 0.177 | [2] 0.045 | [8] 0.04 | pinometostat 0.196 | [15] -0.071 | [10] -0.025

NME4 (UniProt O00746)
inactive: erlotinib -0.147 | [3] 0.03 | [5] -0.049 | ralimetinib 0.004 | [8] -0.119 | [9] 0.034

NIPSNAP2 (UniProt C9J7B1)
inactive: [11] -0.171 | [12] -0.16 | [4] 0.057 | [13] -0.138 | ibrutinib 0.052 | [14] -0.389

NPC1L1 (UniProt Q9UHC9)
inactive: [11] 0.006 | [12] 0.073 | [4] 0.143 | [13] -0.02 | [6] 0 | [7] -0.033 | IRAK-1-4 Inhibitor I 0.014 | ibrutinib 0.047 | [14] -0.008 | pinometostat -0.136 | [10] 0.085

NEO1 (UniProt Q92859)
inactive: [11] -0.378 | [12] 0.371 | [5] -0.051 | [13] -0.286 | [6] -0.145 | [7] 0.223 | [14] -0.177 | ralimetinib -0.034 | [9] 0.017 | [15] 0.062 | [10] -0.069

NOL6 (UniProt Q9H6R4)
inactive: [11] -0.032 | [1] -0.197 | [12] -0.17 | [4] -0.006 | [5] 0.026 | [13] -0.113 | [6] 0.059 | [7] 0.043 | IRAK-1-4 Inhibitor I -0.057 | ibrutinib 0.001 | [14] -0.05 | ralimetinib 0.135 | [2] -0.031 | [9] 0.154 | pinometostat 0.064 | [10] -0.349

NRSN2 (UniProt Q9GZP1)
inactive: erlotinib -0.037 | [1] -0.075 | [3] -0.061 | [6] -0.12 | [7] 0.013 | [2] 0.091 | [8] 0.142 | [10] 0.183

NKIRAS2 (UniProt Q9NYR9)
inactive: erlotinib 0.266 | [1] -0.002 | [3] -0.072 | [6] -0.049 | [7] -0.167 | IRAK-1-4 Inhibitor I 0.051 | [2] 0 | [8] 0.055 | pinometostat 0.099 | [15] 0.128 | [10] -0.032

NMRK1 (UniProt Q9NWW6)
inactive: erlotinib -0.188 | [3] 0.16 | [8] -0.131

NOC4L (UniProt Q9BVI4)
inactive: [15] -0.151

NRBP2 (UniProt Q9NSY0)
inactive: erlotinib 0.146 | [3] -0.128 | [5] -0.024 | IRAK-1-4 Inhibitor I -0.015 | ralimetinib -0.044 | [8] -0.101 | [9] 0.043 | pinometostat -0.004

NOP10 (UniProt Q9NPE3)
inactive: erlotinib -0.122 | [3] 0.164 | [4] 0.007 | [5] -0.142 | IRAK-1-4 Inhibitor I -0.024 | ibrutinib -0.02 | ralimetinib 0.091 | [8] -0.069 | [9] 0.198 | pinometostat -0.028 | [15] 0.047

NOD1 (UniProt Q9Y239)
inactive: [1] -0.057 | [4] 0.018 | [5] -0.118 | IRAK-1-4 Inhibitor I -0.039 | ibrutinib -0.042 | ralimetinib -0.071 | [2] 0.011 | [9] 0.024 | pinometostat -0.116

NGDN (UniProt Q8NEJ9)
inactive: [5] -0.195 | [6] 0.183 | [7] -0.168 | ralimetinib -0.126 | [9] 0.189 | [10] -0.098

NOC3L (UniProt Q8WTT2)
inactive: [11] -0.435 | [1] -0.198 | [12] 0.195 | [4] 0.066 | [13] -0.218 | ibrutinib -0.073 | [14] -0.141 | [2] 0.1 | [15] 0.157

NKTR (UniProt P30414)
inactive: erlotinib 0.597 | [3] 0.028 | [4] -0.149 | ibrutinib -0.191 | [8] 0.084

NOMO3 (UniProt P69849)
inactive: erlotinib -0.001 | [1] -0.131 | [3] 0.022 | [4] 0.072 | IRAK-1-4 Inhibitor I -0.037 | ibrutinib -0.044 | [2] 0.009 | [8] -0.121 | pinometostat -0.01

NOL4L (UniProt Q96MY1)
inactive: erlotinib -0.004 | [1] 0.107 | [3] -0.2 | [6] -0.057 | [7] 0.13 | [2] -0.059 | [8] 0.047 | [15] 0.006 | [10] -0.008
